Laboratory results from patent publication US20030143712A1.
No constants are given. Whether binding was seen depends on the method and setting. For part of these data: In cells and extracts the contact can be indirect. Some entries that bind do so weakly or less than the wild type. For part of these data: Sequences can lack the tags named with a protein.

Chains of the proteins cited; added tags and fusions are not shown.
UniProt O75376: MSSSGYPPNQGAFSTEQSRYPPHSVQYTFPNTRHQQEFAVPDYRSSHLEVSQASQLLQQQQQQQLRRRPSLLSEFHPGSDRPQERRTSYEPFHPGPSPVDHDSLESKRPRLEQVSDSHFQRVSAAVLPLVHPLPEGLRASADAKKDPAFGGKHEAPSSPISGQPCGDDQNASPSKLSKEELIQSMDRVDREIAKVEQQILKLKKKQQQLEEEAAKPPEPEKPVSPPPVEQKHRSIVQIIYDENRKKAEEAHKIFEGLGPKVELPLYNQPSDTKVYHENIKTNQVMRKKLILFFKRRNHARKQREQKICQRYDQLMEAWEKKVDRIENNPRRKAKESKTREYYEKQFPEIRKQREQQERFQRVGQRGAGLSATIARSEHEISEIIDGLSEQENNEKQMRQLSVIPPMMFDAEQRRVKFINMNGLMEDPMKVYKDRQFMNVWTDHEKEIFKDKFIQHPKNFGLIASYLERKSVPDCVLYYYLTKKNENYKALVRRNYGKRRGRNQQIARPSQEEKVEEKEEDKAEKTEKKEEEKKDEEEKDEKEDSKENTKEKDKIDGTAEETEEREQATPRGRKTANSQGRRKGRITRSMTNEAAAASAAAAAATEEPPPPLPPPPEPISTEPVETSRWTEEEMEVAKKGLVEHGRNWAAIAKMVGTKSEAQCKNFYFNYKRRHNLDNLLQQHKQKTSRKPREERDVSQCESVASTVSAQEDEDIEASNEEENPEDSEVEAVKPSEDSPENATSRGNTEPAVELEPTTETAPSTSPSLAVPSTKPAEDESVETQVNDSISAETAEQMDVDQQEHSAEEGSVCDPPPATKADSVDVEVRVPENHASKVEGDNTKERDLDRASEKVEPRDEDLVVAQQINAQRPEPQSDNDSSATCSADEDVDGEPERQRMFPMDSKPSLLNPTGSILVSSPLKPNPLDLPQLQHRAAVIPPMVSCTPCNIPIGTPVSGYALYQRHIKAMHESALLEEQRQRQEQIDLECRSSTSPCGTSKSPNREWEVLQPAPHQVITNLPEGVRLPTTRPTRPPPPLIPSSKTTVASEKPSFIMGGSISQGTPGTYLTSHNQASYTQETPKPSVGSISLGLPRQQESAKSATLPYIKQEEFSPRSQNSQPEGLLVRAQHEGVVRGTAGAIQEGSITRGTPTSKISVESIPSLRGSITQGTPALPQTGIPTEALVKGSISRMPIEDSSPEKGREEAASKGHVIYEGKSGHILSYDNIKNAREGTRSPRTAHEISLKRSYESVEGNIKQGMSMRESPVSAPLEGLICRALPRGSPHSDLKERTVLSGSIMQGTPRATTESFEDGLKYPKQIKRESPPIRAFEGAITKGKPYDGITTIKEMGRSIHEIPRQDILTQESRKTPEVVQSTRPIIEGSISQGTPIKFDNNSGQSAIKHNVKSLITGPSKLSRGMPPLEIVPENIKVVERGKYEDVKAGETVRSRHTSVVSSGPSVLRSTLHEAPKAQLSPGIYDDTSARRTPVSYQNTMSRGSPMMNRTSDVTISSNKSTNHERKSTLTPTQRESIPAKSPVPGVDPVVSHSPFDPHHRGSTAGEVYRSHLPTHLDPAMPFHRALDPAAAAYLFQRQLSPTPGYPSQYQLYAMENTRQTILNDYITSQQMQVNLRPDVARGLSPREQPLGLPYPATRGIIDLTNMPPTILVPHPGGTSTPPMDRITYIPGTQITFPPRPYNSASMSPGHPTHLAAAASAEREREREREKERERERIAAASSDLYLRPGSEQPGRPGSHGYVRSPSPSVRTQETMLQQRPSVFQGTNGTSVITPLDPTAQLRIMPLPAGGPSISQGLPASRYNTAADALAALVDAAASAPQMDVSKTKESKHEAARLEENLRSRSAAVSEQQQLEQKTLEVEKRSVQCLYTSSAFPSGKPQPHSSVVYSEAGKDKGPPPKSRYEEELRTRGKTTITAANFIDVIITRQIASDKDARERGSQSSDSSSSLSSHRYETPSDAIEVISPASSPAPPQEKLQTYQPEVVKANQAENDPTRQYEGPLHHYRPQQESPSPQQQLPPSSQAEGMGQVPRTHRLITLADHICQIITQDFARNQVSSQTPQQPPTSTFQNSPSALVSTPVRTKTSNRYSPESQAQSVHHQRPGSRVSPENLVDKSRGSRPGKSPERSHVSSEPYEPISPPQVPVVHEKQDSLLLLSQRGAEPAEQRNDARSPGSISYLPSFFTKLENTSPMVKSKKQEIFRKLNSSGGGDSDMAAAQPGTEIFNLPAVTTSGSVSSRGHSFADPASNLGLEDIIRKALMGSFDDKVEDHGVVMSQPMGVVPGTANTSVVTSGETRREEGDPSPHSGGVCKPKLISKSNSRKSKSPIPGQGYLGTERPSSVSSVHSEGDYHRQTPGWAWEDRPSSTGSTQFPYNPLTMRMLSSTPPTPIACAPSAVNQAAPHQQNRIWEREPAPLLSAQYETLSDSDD
UniProt Q9Y618: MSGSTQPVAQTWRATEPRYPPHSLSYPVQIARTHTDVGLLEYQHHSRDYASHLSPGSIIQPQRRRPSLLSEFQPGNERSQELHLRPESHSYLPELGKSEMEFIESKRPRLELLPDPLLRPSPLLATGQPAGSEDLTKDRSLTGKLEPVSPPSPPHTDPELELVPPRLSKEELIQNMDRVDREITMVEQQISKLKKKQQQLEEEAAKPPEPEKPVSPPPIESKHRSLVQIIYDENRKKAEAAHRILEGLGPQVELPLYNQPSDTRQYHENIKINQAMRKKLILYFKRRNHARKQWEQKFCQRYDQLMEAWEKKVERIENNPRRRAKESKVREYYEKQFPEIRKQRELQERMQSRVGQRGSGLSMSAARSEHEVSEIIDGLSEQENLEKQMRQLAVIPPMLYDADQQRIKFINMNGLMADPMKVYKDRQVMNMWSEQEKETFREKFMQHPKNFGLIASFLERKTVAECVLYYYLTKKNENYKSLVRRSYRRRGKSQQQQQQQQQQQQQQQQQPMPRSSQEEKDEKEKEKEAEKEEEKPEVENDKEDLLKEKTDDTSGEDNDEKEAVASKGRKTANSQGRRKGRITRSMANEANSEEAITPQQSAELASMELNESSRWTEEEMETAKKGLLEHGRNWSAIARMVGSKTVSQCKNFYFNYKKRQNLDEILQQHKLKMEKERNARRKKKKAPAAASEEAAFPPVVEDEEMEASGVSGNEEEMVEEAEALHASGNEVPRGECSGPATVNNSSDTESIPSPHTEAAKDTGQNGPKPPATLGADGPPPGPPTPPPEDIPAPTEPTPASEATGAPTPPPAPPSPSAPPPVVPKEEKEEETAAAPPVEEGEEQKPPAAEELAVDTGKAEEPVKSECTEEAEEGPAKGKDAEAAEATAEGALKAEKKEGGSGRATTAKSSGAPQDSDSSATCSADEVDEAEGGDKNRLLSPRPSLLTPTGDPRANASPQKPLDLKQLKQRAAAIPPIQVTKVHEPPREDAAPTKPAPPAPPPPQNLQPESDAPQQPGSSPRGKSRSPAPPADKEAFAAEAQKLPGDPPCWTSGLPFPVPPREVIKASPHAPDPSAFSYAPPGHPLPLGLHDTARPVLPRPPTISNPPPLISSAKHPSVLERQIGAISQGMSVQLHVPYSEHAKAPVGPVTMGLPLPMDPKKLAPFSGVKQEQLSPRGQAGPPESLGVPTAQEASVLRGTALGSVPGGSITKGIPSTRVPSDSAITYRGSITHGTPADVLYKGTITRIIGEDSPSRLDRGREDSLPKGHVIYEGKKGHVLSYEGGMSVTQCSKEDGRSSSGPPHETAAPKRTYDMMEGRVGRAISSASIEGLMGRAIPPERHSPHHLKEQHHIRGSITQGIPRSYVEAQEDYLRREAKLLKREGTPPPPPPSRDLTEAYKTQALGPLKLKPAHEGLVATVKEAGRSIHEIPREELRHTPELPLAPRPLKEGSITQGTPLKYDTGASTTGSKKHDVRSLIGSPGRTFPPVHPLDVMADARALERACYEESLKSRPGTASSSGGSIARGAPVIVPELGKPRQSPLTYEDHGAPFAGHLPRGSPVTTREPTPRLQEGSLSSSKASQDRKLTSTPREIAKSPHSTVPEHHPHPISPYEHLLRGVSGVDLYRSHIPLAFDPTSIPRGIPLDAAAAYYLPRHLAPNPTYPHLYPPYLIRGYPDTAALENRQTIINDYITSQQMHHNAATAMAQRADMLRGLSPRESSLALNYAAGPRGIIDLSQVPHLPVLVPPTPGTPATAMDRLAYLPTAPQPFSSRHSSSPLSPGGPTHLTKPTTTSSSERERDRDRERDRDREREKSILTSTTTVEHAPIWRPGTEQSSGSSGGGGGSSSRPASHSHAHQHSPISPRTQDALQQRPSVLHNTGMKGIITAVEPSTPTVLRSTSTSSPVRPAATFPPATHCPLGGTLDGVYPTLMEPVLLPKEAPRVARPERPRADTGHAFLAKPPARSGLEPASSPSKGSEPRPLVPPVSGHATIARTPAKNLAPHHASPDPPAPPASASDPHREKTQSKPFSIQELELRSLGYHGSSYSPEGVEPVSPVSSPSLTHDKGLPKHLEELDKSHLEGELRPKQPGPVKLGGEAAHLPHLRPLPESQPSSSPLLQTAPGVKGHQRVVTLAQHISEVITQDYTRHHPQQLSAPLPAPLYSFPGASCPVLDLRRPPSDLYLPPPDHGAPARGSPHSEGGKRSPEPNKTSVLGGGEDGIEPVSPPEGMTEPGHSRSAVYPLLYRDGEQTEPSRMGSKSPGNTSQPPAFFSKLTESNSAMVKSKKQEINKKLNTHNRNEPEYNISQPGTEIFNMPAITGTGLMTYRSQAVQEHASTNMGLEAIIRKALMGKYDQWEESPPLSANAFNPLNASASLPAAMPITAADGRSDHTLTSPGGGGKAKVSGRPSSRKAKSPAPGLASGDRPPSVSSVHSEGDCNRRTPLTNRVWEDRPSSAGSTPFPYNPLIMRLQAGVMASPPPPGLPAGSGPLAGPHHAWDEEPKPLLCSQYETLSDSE
UniProt Q63943: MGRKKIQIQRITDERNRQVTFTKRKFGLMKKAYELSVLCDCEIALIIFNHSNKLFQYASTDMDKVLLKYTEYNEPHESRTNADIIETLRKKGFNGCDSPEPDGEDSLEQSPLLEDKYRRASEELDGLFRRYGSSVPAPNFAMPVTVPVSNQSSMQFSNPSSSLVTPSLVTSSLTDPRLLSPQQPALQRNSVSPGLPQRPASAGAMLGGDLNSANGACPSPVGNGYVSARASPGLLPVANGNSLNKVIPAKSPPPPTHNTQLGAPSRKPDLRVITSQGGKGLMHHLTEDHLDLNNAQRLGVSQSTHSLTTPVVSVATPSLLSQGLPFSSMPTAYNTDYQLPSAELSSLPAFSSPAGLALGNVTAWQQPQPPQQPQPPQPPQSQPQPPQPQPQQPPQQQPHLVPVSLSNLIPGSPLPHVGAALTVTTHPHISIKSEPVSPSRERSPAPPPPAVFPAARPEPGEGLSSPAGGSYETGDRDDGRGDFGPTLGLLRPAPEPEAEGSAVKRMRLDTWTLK
UniProt Q14814: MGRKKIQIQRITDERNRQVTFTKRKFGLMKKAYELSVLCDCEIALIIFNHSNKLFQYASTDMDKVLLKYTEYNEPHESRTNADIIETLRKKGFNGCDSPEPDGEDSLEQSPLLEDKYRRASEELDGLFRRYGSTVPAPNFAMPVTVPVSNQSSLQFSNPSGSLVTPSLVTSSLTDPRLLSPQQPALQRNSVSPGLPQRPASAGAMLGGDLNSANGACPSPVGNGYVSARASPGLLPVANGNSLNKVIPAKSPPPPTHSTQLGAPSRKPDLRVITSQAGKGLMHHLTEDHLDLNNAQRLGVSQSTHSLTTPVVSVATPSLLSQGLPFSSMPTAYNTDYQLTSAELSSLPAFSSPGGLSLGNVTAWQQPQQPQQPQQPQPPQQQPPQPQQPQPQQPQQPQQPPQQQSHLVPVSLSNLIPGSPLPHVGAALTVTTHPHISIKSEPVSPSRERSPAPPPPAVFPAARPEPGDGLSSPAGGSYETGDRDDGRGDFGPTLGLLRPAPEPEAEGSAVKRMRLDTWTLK

What was measured:
endogenous N-CoR [1] = target: endogenous N-CoR (UniProt O75376); experiment: GST pull-down from cell extracts
endogenous SMRT [2] = target: endogenous SMRT (UniProt Q9Y618); experiment: GST pull-down from cell extracts
[3] = target: endogenous MEF2D of DO11.10 T-cell hybridoma cells (UniProt Q63943); experiment: anti-FLAG co-immunoprecipitation from stable polyclonal cell lines, western blot
[4] = target: endogenous MEF2D of DO11.10 T-cell hybridoma cells (UniProt Q63943); experiment: anti-FLAG immunoprecipitation from DO11.10 polyclonal cell lines
endogenous N-CoR [5] = target: endogenous N-CoR (UniProt O75376); experiment: co-immunoprecipitation, western blot
endogenous SMRT [6] = target: endogenous SMRT (UniProt Q9Y618); experiment: co-immunoprecipitation, western blot
[7] = target: endogenous MEF2D of human primary thymocytes (human) (UniProt Q14814); experiment: immunoprecipitation with anti-HDAC7 antiserum from human primary thymocyte extracts, western blot for MEF2D

B1: GST-HDAC7(aa 438-912) (enzyme, not shown: a dimerising Fc or GST)
chain: QGGHRPLSRAQSSPAAPASLSAPEPASQARVLSSSETPARTLPFTTGLIYDSVMLKHQCSCGDNSRHPEHAGRIQSIWSRLQERGLRSQCECLRGRKASLEELQSVHSERHVLLYGTNPLSRLKLDNGKLAGLLAQRMFVMLPCGGVGVDTDTIWNELHSSNAARWAAGSVTDLAFKVASRELKNGFAVVRPPGHHADHSTAMGFCFFNSVAIACRQLQQQSKASKILIVDWDVHHGNGTQQTFYQDPSVLYISLHRHDDGNFFPGSGAVDEVGAGSGEGFNVNVAWAGGLDPPMGDPEYLAAFRIVVMPIAREFSPDLVLVSAGFDAAEGHPAPLGGYHVSAKCFGYMTQQLMNLAGGAVVLALEGGHDLTAICDASEACVAALLGNRVDPLSEEGWKQKPNLNAIRSLEAVIRVHSKYWGCMQRLASCPDSWVPRVPGADKEEVEAVTALASLSVGILAEDRPSEQLVEEEEP
In the case of B1, the binding (endogenous N-CoR [1]) is reported as “binds” and the binding (endogenous SMRT [2]) is reported as “binds”.

B2: HDAC7-FLAG (full-length human HDAC7 with C-terminal FLAG tag, expressed in cells) (enzyme, not shown: small tags and cut ends)
chain: MDLRVGQRPPVEPPPEPTLLALQRPQRLHHHLFLAGLQQQRSVEPMRLSMDTPMPELQVGPQEQELRQLLHKDKSKRSAVASSVVKQKLAEVILKKQQAALERTVHPNSPGIPYRTLEPLETEGATRSMLSSFLPPVPSLPSDPPEHFPLRKTVSEPNLKLRYKPKKSLERRKNPLLRKESAPPSLRRRPAETLGDSSPSSSSTPASGCSSPNDSEHGPNPILGSEADSDRRTHPTLGPRGPILGSPHTPLFLPHGLEPEAGGTLPSRLQPILLLDPSGSHAPLLTVPGLGPLPFHFAQSLMTTERLSGSGLHWPLSRTRSEPLPPSATAPPPPGPMQPRLEQLKTHVQVIKRSAKPSEKPRLRQIPSAEDLETDGGGPGQVVDDGLEHRELGHGQPEARGPAPLQQHPQVLLWEQQRLAGRLPRGSTGDTVLLPLAQGGHRPLSRAQSSPAAPASLSAPEPASQARVLSSSETPARTLPFTTGLIYDSVMLKHQCSCGDNSRHPEHAGRIQSIWSRLQERGLRSQCECLRGRKASLEELQSVHSERHVLLYGTNPLSRLKLDNGKLAGLLAQRMFVMLPCGGVGVDTDTIWNELHSSNAARWAAGSVTDLAFKVASRELKNGFAVVRPPGHHADHSTAMGFCFFNSVAIACRQLQQQSKASKILIVDWDVHHGNGTQQTFYQDPSVLYISLHRHDDGNFFPGSGAVDEVGAGSGEGFNVNVAWAGGLDPPMGDPEYLAAFRIVVMPIAREFSPDLVLVSAGFDAAEGHPAPLGGYHVSAKCFGYMTQQLMNLAGGAVVLALEGGHDLTAICDASEACVAALLGNRVDPLSEEGWKQKPNLNAIRSLEAVIRVHSKYWGCMQRLASCPDSWVPRVPGADKEEVEAVTALASLSVGILAEDRPSEQLVEEEEPMNL
In the case of B2, the binding [3] is reported as “binds”, the binding [4] is reported as “binds” and the binding (endogenous N-CoR [5]) is reported as “binds”. The binding (endogenous SMRT [6]) was “binds”.

B3: FLAG-tagged amino-terminus (aa 1-487) domain of HDAC7 (enzyme, not shown: small tags and cut ends)
chain: MDLRVGQRPPVEPPPEPTLLALQRPQRLHHHLFLAGLQQQRSVEPMRLSMDTPMPELQVGPQEQELRQLLHKDKSKRSAVASSVVKQKLAEVILKKQQAALERTVHPNSPGIPYRTLEPLETEGATRSMLSSFLPPVPSLPSDPPEHFPLRKTVSEPNLKLRYKPKKSLERRKNPLLRKESAPPSLRRRPAETLGDSSPSSSSTPASGCSSPNDSEHGPNPILGSEADSDRRTHPTLGPRGPILGSPHTPLFLPHGLEPEAGGTLPSRLQPILLLDPSGSHAPLLTVPGLGPLPFHFAQSLMTTERLSGSGLHWPLSRTRSEPLPPSATAPPPPGPMQPRLEQLKTHVQVIKRSAKPSEKPRLRQIPSAEDLETDGGGPGQVVDDGLEHRELGHGQPEARGPAPLQQHPQVLLWEQQRLAGRLPRGSTGDTVLLPLAQGGHRPLSRAQSSPAAPASLSAPEPASQARVLSSSETPARTLPFTTGLIY
In the case of B3, the binding [3] is reported as “binds”.

B4: endogenous HDAC7 (human cells: cell-line lysates, human primary thymocytes) (enzyme)
chain: MDLRVGQRPPVEPPPEPTLLALQRPQRLHHHLFLAGLQQQRSVEPMRLSMDTPMPELQVGPQEQELRQLLHKDKSKRSAVASSVVKQKLAEVILKKQQAALERTVHPNSPGIPYRTLEPLETEGATRSMLSSFLPPVPSLPSDPPEHFPLRKTVSEPNLKLRYKPKKSLERRKNPLLRKESAPPSLRRRPAETLGDSSPSSSSTPASGCSSPNDSEHGPNPILGSEADSDRRTHPTLGPRGPILGSPHTPLFLPHGLEPEAGGTLPSRLQPILLLDPSGSHAPLLTVPGLGPLPFHFAQSLMTTERLSGSGLHWPLSRTRSEPLPPSATAPPPPGPMQPRLEQLKTHVQVIKRSAKPSEKPRLRQIPSAEDLETDGGGPGQVVDDGLEHRELGHGQPEARGPAPLQQHPQVLLWEQQRLAGRLPRGSTGDTVLLPLAQGGHRPLSRAQSSPAAPASLSAPEPASQARVLSSSETPARTLPFTTGLIYDSVMLKHQCSCGDNSRHPEHAGRIQSIWSRLQERGLRSQCECLRGRKASLEELQSVHSERHVLLYGTNPLSRLKLDNGKLAGLLAQRMFVMLPCGGVGVDTDTIWNELHSSNAARWAAGSVTDLAFKVASRELKNGFAVVRPPGHHADHSTAMGFCFFNSVAIACRQLQQQSKASKILIVDWDVHHGNGTQQTFYQDPSVLYISLHRHDDGNFFPGSGAVDEVGAGSGEGFNVNVAWAGGLDPPMGDPEYLAAFRIVVMPIAREFSPDLVLVSAGFDAAEGHPAPLGGYHVSAKCFGYMTQQLMNLAGGAVVLALEGGHDLTAICDASEACVAALLGNRVDPLSEEGWKQKPNLNAIRSLEAVIRVHSKYWGCMQRLASCPDSWVPRVPGADKEEVEAVTALASLSVGILAEDRPSEQLVEEEEPMNL
For B4, the binding [7] was “binds”.

B5: FLAG-tagged HDAC7-Q87AE91A (expressed in DO11.10 cells) (enzyme, not shown: small tags and cut ends)
chain: MDLRVGQRPPVEPPPEPTLLALQRPQRLHHHLFLAGLQQQRSVEPMRLSMDTPMPELQVGPQEQELRQLLHKDKSKRSAVASSVVKAKLAAVILKKQQAALERTVHPNSPGIPYRTLEPLETEGATRSMLSSFLPPVPSLPSDPPEHFPLRKTVSEPNLKLRYKPKKSLERRKNPLLRKESAPPSLRRRPAETLGDSSPSSSSTPASGCSSPNDSEHGPNPILGSEADSDRRTHPTLGPRGPILGSPHTPLFLPHGLEPEAGGTLPSRLQPILLLDPSGSHAPLLTVPGLGPLPFHFAQSLMTTERLSGSGLHWPLSRTRSEPLPPSATAPPPPGPMQPRLEQLKTHVQVIKRSAKPSEKPRLRQIPSAEDLETDGGGPGQVVDDGLEHRELGHGQPEARGPAPLQQHPQVLLWEQQRLAGRLPRGSTGDTVLLPLAQGGHRPLSRAQSSPAAPASLSAPEPASQARVLSSSETPARTLPFTTGLIYDSVMLKHQCSCGDNSRHPEHAGRIQSIWSRLQERGLRSQCECLRGRKASLEELQSVHSERHVLLYGTNPLSRLKLDNGKLAGLLAQRMFVMLPCGGVGVDTDTIWNELHSSNAARWAAGSVTDLAFKVASRELKNGFAVVRPPGHHADHSTAMGFCFFNSVAIACRQLQQQSKASKILIVDWDVHHGNGTQQTFYQDPSVLYISLHRHDDGNFFPGSGAVDEVGAGSGEGFNVNVAWAGGLDPPMGDPEYLAAFRIVVMPIAREFSPDLVLVSAGFDAAEGHPAPLGGYHVSAKCFGYMTQQLMNLAGGAVVLALEGGHDLTAICDASEACVAALLGNRVDPLSEEGWKQKPNLNAIRSLEAVIRVHSKYWGCMQRLASCPDSWVPRVPGADKEEVEAVTALASLSVGILAEDRPSEQLVEEEEPMNL
In the case of B5, the binding [4] is reported as “binds”.
